For part of these data: For expression read-outs the peptide stands for its source gene, whose mRNA was measured; the gene is not named for every peptide.
What was measured:
HLA-A*02 = assay: Identification and relative LC-MS quantitation of HLA-A*02-presented tumor-associated peptides on tissue samples (presentation profiles, Tables 13A, 13B, 15, FIG. 1); set-up: species or system human; key to Presentation score NHL / Presentation score CLL / Presentation score BRCA / Presentation score AML / Presentation score GB / Presentation score NSCLC / Presentation score GBC_CCC / Presentation score UEC / Presentation score MEL / Presentation score OSCAR / Presentation score GC / Presentation score UBC / Presentation score OC / Presentation score RCC / Presentation score CRC / Presentation score PCA / Presentation score HCC / Presentation score PC / Presentation score SCLC: specifically presented on tumors (++++); very highly over-presented on tumors compared to a panel of normal tissues (+++); highly over-presented on tumors compared to a panel of normal tissues (++); over-presented on tumors compared to a panel of normal tissues (+); conditions: for Presentation score OSCAR / Presentation score GC / Presentation score NSCLC: HLA-A*02 peptides; for Presentation score OSCAR: esophageal cancer, including cancer of the gastric-esophageal junction (N = 17) vs panel of normal tissues (N = 262); for Presentation score GC: gastric cancer (N = 29) vs panel of normal tissues (N = 262); for Presentation score NSCLC: non-small cell lung cancer (N = 90) vs panel of normal tissues (N = 262); for Peptide Presentation on cancer entities: Table 13A, HLA-A*02-binding tumor-associated peptides, cancer entities on which the peptide was found presented
source genes (mRNA) [1] = assay: Gene and exon expression of source genes, TCGA tumor samples compared with normal tissue samples (Lonsdale, 2013) (Table 17); set-up: species or system human; conditions: for Target coverage: over-expression category of source gene, LAML: Acute Myeloid Leukemia (N = 173); for Target coverage: over-expression category of source gene, BLCA: Bladder urothelial carcinoma (N = 408); for Target coverage: over-expression category of source gene, BRCA: Breast cancer (N = 1104), cutoff more than 2-fold above highest 75% percentile of high and medium risk normal tissue samples; for Target coverage: over-expression category of source gene, READ: Colon and rectal adenocarcinoma (N = 167); for Target coverage: over-expression category of source gene, COAD: Colon and rectal adenocarcinoma (N = 462); for Target coverage: over-expression category of source gene, ESCA: Esophageal cancer (N = 185); for Target coverage: over-expression category of source gene, GBM: Glioblastoma multiforme (N = 169); for Target coverage: over-expression category of source gene, LGG: Lower grade glioma (N = 534); for Target coverage: over-expression category of source gene, LUAD: Lung adenocarcinoma (N = 517); for Target coverage: over-expression category of source gene, LUSC: Lung squamous cell carcinoma (N = 503); for Target coverage: over-expression category of source gene, DLBC: Lymphoid neoplasm diffuse large B-cell lymphoma (N = 48); for Target coverage: over-expression category of source gene, OV: Ovarian serous cystadenocarcinoma (N = 309); for Target coverage: over-expression category of source gene, SKCM: Skin cutaneous melanoma (N = 473); for Target coverage: over-expression category of source gene, STAD: Stomach adenocarcinoma (N = 415); for Target coverage: over-expression category of source gene, UCEC: Uterine corpus endometrial carcinoma (N = 546); for Target coverage: over-expression category of source gene, CHOL: Cholangiocarcinoma (N = 36); for Target coverage: over-expression category of source gene, PRAD: Prostate adenocarcinoma (N = 498); for Target coverage: over-expression category of source gene, PAAD: Pancreatic ductal adenocarcinoma (N = 179)
source genes (mRNA) [2] = assay: Expression profiling of source genes by in-house RNASeq of tumor and normal tissues (Table 18, FIG. 2); set-up: species or system human; key: very highly over-expressed in tumors compared to a panel of normal tissues (+++); highly over-expressed in tumors compared to a panel of normal tissues (++); over-expressed in tumors compared to a panel of normal tissues (+); conditions: source gene of peptide; for Expression score BRCA: BRCA tumors vs panel of normal tissues; for Expression score CRC: colorectal cancer (N = 20) vs panel of normal tissues; for Expression score OSCAR: esophageal cancer incl. gastric-esophageal junction (N = 11) vs panel of normal tissues; for Expression score GBC_CCC: gallbladder adenocarcinoma and cholangiocarcinoma (N = 3) vs panel of normal tissues; for Expression score NSCLC: non-small cell lung cancer (N = 11) vs panel of normal tissues; for Expression score OC: ovarian cancer (N = 12) vs panel of normal tissues; for Expression score UBC: urinary bladder cancer (N = 10) vs panel of normal tissues; for Expression score HCC: hepatocellular carcinoma (N = 15) vs panel of normal tissues
[3] = cutoff more than 2-fold above highest 75% percentile of normal tissue samples

## 75: peptide found in MSH2 (gene looked up) (AVIKFLELL; listed as Homo sapiens) [compound 75]
HLA-A*02
  Presentation score OSCAR: ++++
  Presentation score GC: ++++
  Presentation score NSCLC: ++++
  Peptide Presentation on cancer entities: GC, NSCLC, OSCAR
Source genes (mRNA) [1]; [3]
  Target coverage: over-expression category of source gene, LAML: A (>=50% of tumors above the cutoff)
  Target coverage: over-expression category of source gene, BLCA: C (>=5% of tumors above the cutoff, but <20%)
  Target coverage: over-expression category of source gene, READ: C (>=5% of tumors above the cutoff, but <20%)
  Target coverage: over-expression category of source gene, COAD: B (>= 20% of tumors above the cutoff, but <50%)
  Target coverage: over-expression category of source gene, ESCA: C (>=5% of tumors above the cutoff, but <20%)
  Target coverage: over-expression category of source gene, GBM: C (>=5% of tumors above the cutoff, but <20%)
  Target coverage: over-expression category of source gene, LGG: C (>=5% of tumors above the cutoff, but <20%)
  Target coverage: over-expression category of source gene, LUAD: C (>=5% of tumors above the cutoff, but <20%)
  Target coverage: over-expression category of source gene, LUSC: B (>= 20% of tumors above the cutoff, but <50%)
  Target coverage: over-expression category of source gene, DLBC: B (>= 20% of tumors above the cutoff, but <50%)
  Target coverage: over-expression category of source gene, OV: B (>= 20% of tumors above the cutoff, but <50%)
  Target coverage: over-expression category of source gene, SKCM: B (>= 20% of tumors above the cutoff, but <50%)
  Target coverage: over-expression category of source gene, STAD: C (>=5% of tumors above the cutoff, but <20%)
  Target coverage: over-expression category of source gene, UCEC: C (>=5% of tumors above the cutoff, but <20%)
Source genes (mRNA) [1]
  Target coverage: over-expression category of source gene, BRCA: B (>= 20% of tumors above the cutoff, but <50%)
Source genes (mRNA) [2]
  Expression score BRCA: +
  Expression score CRC: +
  Expression score OSCAR: +
  Expression score GBC_CCC: +
  Expression score NSCLC: +
  Expression score OC: ++
  Expression score UBC: +
Source genes (mRNA) [2]; glioblastoma (N = 24) vs panel of normal tissues
  Expression score GB: +
Source genes (mRNA) [2]; non-Hodgkin lymphoma (N = 10) vs panel of normal tissues
  Expression score NHL: +
Source genes (mRNA) [2]; small cell lung cancer (N = 10) vs panel of normal tissues
  Expression score SCLC: +++
Source genes (mRNA) [2]; uterine cancer (N = 10) vs panel of normal tissues
  Expression score UEC: +

## 79: peptide found in CBX4 (gene looked up) (VTFKEYVTV; listed as Homo sapiens) [compound 79]
HLA-A*02
  Presentation score OSCAR: ++++
  Presentation score GC: ++++
  Presentation score NSCLC: ++++
  Peptide Presentation on cancer entities: GC, NSCLC, OSCAR
Source genes (mRNA) [1]; [3]
  Target coverage: over-expression category of source gene, LAML: C (>=5% of tumors above the cutoff, but <20%)
  Target coverage: over-expression category of source gene, CHOL: C (>=5% of tumors above the cutoff, but <20%)
  Target coverage: over-expression category of source gene, READ: C (>=5% of tumors above the cutoff, but <20%)
  Target coverage: over-expression category of source gene, COAD: C (>=5% of tumors above the cutoff, but <20%)
  Target coverage: over-expression category of source gene, ESCA: C (>=5% of tumors above the cutoff, but <20%)
  Target coverage: over-expression category of source gene, LGG: C (>=5% of tumors above the cutoff, but <20%)
  Target coverage: over-expression category of source gene, LUAD: C (>=5% of tumors above the cutoff, but <20%)
  Target coverage: over-expression category of source gene, LUSC: C (>=5% of tumors above the cutoff, but <20%)
  Target coverage: over-expression category of source gene, OV: C (>=5% of tumors above the cutoff, but <20%)
  Target coverage: over-expression category of source gene, PRAD: C (>=5% of tumors above the cutoff, but <20%)
  Target coverage: over-expression category of source gene, SKCM: B (>= 20% of tumors above the cutoff, but <50%)
  Target coverage: over-expression category of source gene, STAD: B (>= 20% of tumors above the cutoff, but <50%)
Source genes (mRNA) [1]
  Target coverage: over-expression category of source gene, BRCA: B (>= 20% of tumors above the cutoff, but <50%)
Source genes (mRNA) [2]
  Expression score BRCA: +
  Expression score OSCAR: +
  Expression score HCC: +
Source genes (mRNA) [2]; chronic lymphocytic leukemia (N = 10) vs panel of normal tissues
  Expression score CLL: +

## 81: peptide found in ALG8 (gene looked up) (NALDKVLSV; listed as Homo sapiens) [compound 81]
HLA-A*02
  Presentation score OSCAR: ++++
  Presentation score GC: ++++
  Presentation score NSCLC: ++++
  Peptide Presentation on cancer entities: GC, NSCLC, OSCAR
Source genes (mRNA) [1]; [3]
  Target coverage: over-expression category of source gene, LAML: A (>=50% of tumors above the cutoff)
  Target coverage: over-expression category of source gene, BLCA: A (>=50% of tumors above the cutoff)
  Target coverage: over-expression category of source gene, CHOL: A (>=50% of tumors above the cutoff)
  Target coverage: over-expression category of source gene, READ: A (>=50% of tumors above the cutoff)
  Target coverage: over-expression category of source gene, COAD: A (>=50% of tumors above the cutoff)
  Target coverage: over-expression category of source gene, ESCA: A (>=50% of tumors above the cutoff)
  Target coverage: over-expression category of source gene, GBM: A (>=50% of tumors above the cutoff)
  Target coverage: over-expression category of source gene, LGG: B (>= 20% of tumors above the cutoff, but <50%)
  Target coverage: over-expression category of source gene, LUAD: A (>=50% of tumors above the cutoff)
  Target coverage: over-expression category of source gene, LUSC: A (>=50% of tumors above the cutoff)
  Target coverage: over-expression category of source gene, DLBC: A (>=50% of tumors above the cutoff)
  Target coverage: over-expression category of source gene, OV: A (>=50% of tumors above the cutoff)
  Target coverage: over-expression category of source gene, PAAD: A (>=50% of tumors above the cutoff)
  Target coverage: over-expression category of source gene, PRAD: A (>=50% of tumors above the cutoff)
  Target coverage: over-expression category of source gene, SKCM: A (>=50% of tumors above the cutoff)
  Target coverage: over-expression category of source gene, STAD: A (>=50% of tumors above the cutoff)
  Target coverage: over-expression category of source gene, UCEC: A (>=50% of tumors above the cutoff)
Source genes (mRNA) [1]
  Target coverage: over-expression category of source gene, BRCA: A (>=50% of tumors above the cutoff)
Source genes (mRNA) [1]; Clear cell kidney carcinoma (N = 534), cutoff more than 2-fold above highest 75% percentile of normal tissue samples
  Target coverage: over-expression category of source gene, KIRC: A (>=50% of tumors above the cutoff)
Source genes (mRNA) [1]; Kidney chromophobe (N = 66), cutoff more than 2-fold above highest 75% percentile of normal tissue samples
  Target coverage: over-expression category of source gene, KICH: A (>=50% of tumors above the cutoff)
Source genes (mRNA) [1]; Liver hepatocellular carcinoma (N = 374), cutoff more than 2-fold above highest 75% percentile of normal tissue samples
  Target coverage: over-expression category of source gene, LIHC: A (>=50% of tumors above the cutoff)
Source genes (mRNA) [1]; Papillary kidney carcinoma (N = 291), cutoff more than 2-fold above highest 75% percentile of normal tissue samples
  Target coverage: over-expression category of source gene, KIRP: A (>=50% of tumors above the cutoff)
Source genes (mRNA) [2]
  Expression score HCC: +
  Expression score OC: +

## 83: peptide found in MST1R (gene looked up) (GQASYFYVA; listed as Homo sapiens) [compound 83]
HLA-A*02
  Peptide Presentation on cancer entities: CRC, AML
Source genes (mRNA) [1]; [3]
  Target coverage: over-expression category of source gene, READ: C (>=5% of tumors above the cutoff, but <20%)
  Target coverage: over-expression category of source gene, COAD: C (>=5% of tumors above the cutoff, but <20%)
  Target coverage: over-expression category of source gene, ESCA: C (>=5% of tumors above the cutoff, but <20%)
  Target coverage: over-expression category of source gene, PAAD: C (>=5% of tumors above the cutoff, but <20%)
  Target coverage: over-expression category of source gene, STAD: C (>=5% of tumors above the cutoff, but <20%)
Source genes (mRNA) [2]
  Expression score CRC: ++
  Expression score OSCAR: +
  Expression score GBC_CCC: +
  Expression score NSCLC: +
  Expression score OC: +
  Expression score UBC: +++
Source genes (mRNA) [2]; gastric cancer (N = 11) vs panel of normal tissues
  Expression score GC: +++
Source genes (mRNA) [2]; pancreatic cancer (N = 26) vs panel of normal tissues
  Expression score PC: +++
